Results on 60 molecules are retold here after PubChem BioAssay AID2685 (National Center for Advancing Translational Sciences (NCATS), 2010).

Some of the results follow. Shown are side measurements of this screen, not its main read-out; they come without a call. Most of these compounds were active or inconclusive in the main read-out, so they are no random draw. Words in brackets tell the shape of the fitted curve; partial curves, single points and poor fits give uncertain potencies.

The AC50 is the midpoint of the concentration-response curve, whichever way the signal moves. A low value points to greater potency.

This assay can be described thus: qHTS Assay for Lipid Storage Modulators in Drosophila S3 Cells.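 For cell number change: cells counted by Cell Tracker Red CMTPX staining in the red channel.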 The settings on record: BODIPY lipid droplet fluorescence, 18-24 h; for cell number change: measured here: cell count max response, cells fed with added oleic acid. An outline of the steps: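 Drosophila S3 cells loaded with oleic acid (400 uM, as added) and compounds at several concentrations; lipid droplets imaged by 488-nm laser-scanning cytometry, 500–530 nm intensity and object ratio to cell channel. Percent activity normalized to 20 uM Triacsin C.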
Background: qHTS replaces the single test concentration by a dilution series.

Setting [1] is: measured here: lipid fluorescence (Fed channel) AC50, cells fed with added oleic acid.
Setting [2] is: measured here: cell number channel AC50, cells fed with added oleic acid.

As to `COc1ccc(NCC(=O)N/N=C/c2ccc3c(c2)OCCO3)cc1`, the cell number change came out at 10.8%. Besides, under setting [1], the AC50 was 29.1 µM [rising, single point].

For the molecule `CN(C)C(CNC(C(=O)Nc1ccc(F)cc1)c1ccccc1)c1ccccc1` (stereo not drawn), the cell number change is -14.1%.

As for `CC(C)(C)C(=O)NC1(C(F)(F)F)C(=O)Nc2c1c(=O)[nH]c(=O)n2Cc1ccco1` (stereo not drawn), the cell number change amounted to 7.01%. Further, the AC50 under setting [1] is 0.0326 µM [falling, full curve, poor fit]. With `COc1ccc(NC(=O)C2CC2)cc1S(=O)(=O)N1CCOCC1`, the cell number change was -26%. Under setting [2], the AC50 was 0.116 µM [falling, full curve, poor fit]. The AC50 under setting [1] was 0.259 µM [rising, full curve]. Regarding `O=C(Cc1ccc(Br)cc1)N1CCCC1`, the cell number change worked out at 16.2%. Besides, under setting [1], the AC50 is 6.51 µM [rising, single point]. Consider `CC(C)(C)c1ccc(C(=O)NCc2nnc(SCC(=O)NC3CCCC3)o2)cc1`, for which the cell number change is -42.1%. Besides, the AC50 under setting [2] is 0.206 µM [falling, partial curve]. The AC50 under setting [1] is 14.6 µM [falling, partial curve]. Consider `Cc1c(O)ccc2c(CN3CCN(C/C=C/c4ccccc4)CC3)cc(=O)oc12`, for which the cell number change was -16.3%. Also, the AC50 under setting [1] was 0.00461 µM [falling, full curve, poor fit]. Regarding `CCn1nc(C)c(/C=N/NC(=O)c2nc3nc(C)cc(C)n3n2)c1C`, the cell number change is -21.2%. The AC50 under setting [1] was 5.8 µM [falling, full curve].

With `CN(C(=O)/C(N=Nc1cccc(C(F)(F)F)c1)=C(\O)C(F)(F)F)c1ccccc1`, the cell number change was 19.9%. The AC50 under setting [2] was 4.61 µM [rising, single point].

In the case of `Cc1noc(C)c1S(=O)(=O)N1CCC(C(=O)Nc2ccc(OC(F)(F)F)cc2)CC1`, the AC50 under setting [1] is 20.6 µM [falling, partial curve]. For `COCCNc1cc(-c2ccccc2)nc2cc(-c3cccc(F)c3)nn12`, the cell number change is -8.84%. The AC50 under setting [1] was 29.1 µM [falling, single point]. For `O=C(Nc1ccc(Cl)cc1)N1CCN(c2ccc3nnc(-c4ccc(F)cc4)n3n2)CC1`, the cell number change was -47.9%. Also, the AC50 under setting [2] is 29.1 µM [falling, single point]. On to `CCCCNC(=O)Nc1ccnn1C1CCCCC1`, for which the cell number change was 20.6%. Moreover, under setting [2], the AC50 was 0.731 µM [falling, single point]. Under setting [1], the AC50 was 18.4 µM [falling, single point]. For the molecule `COc1ccc(C(=O)N2CCCC(Nc3ccc(F)cc3)C2)c(OC)c1` (stereo not drawn), the cell number change was found to be 34.4%. Further, the AC50 under setting [2] is 16.4 µM [rising, partial curve, poor fit].

Regarding `CS(=O)(=O)c1ccc(C(=O)N(Cc2ccccc2)c2ccccc2)cc1`, the cell number change turned out to be 14.5%. Further, the AC50 under setting [1] is 0.291 µM [falling, full curve, poor fit].

As to `CCc1cc(=O)oc2cc(OCC(=O)O)c(Cl)cc12`, the cell number change was -119%. The AC50 under setting [2] is 25.9 µM [falling, partial curve]. The AC50 under setting [1] was 0.651 µM [falling, full curve]. For `O=C1CCCC2=C1C(c1ccc(O)cc1)c1c(ccc3ccccc13)N2` (stereo not drawn), the AC50 under setting [1] is 0.58 µM [falling, single point]. On to `COc1cc2c(cc1OC)CN(C(=O)c1cc(S(=O)(=O)N3CCOCC3)c(Cl)cc1Cl)CC2`, for which the cell number change is -8.12%. Besides, under setting [1], the AC50 was 8.2 µM [rising, partial curve]. On to `Cc1ccccc1-c1nc(CS(=O)(=O)CC(=O)NCCCN2CCOCC2)c(C)o1`, for which the cell number change was -8.78%. For the molecule `Cc1ccsc1/C=N/NC(=S)NCCc1ccccc1`, the cell number change stood at 16.6%.

On to `COc1ccc(C2C(C#N)=C(N)Oc3n[nH]c(C)c32)cc1Cn1cc([N+](=O)[O-])cn1` (stereo not drawn), for which the cell number change was -10.2%.

As for `Cc1ccc(CNC(=O)c2ccc(N3CCC4(CC3)CC(c3cccc(Br)c3)=NO4)c(NC(=O)c3cccc(C)c3)c2)cc1`, the cell number change amounted to 2.62%. Moreover, the AC50 under setting [1] was 14.6 µM [rising, single point].

Turning to `CCOC(=O)c1c(O)c2c([nH]c1=O)CCCC2`, the AC50 under setting [1] is 20.6 µM [falling, partial curve].

On to `CCOc1cc(CNCC(C)C)c(Cl)cc1OCC(=O)Nc1ccccc1`, for which the cell number change was determined as 50%.

With `CCOc1cc(C2/C(=C(/O)c3ccc(OC(C)C)cc3)C(=O)C(=O)N2CCCOC)ccc1O` (stereo not drawn), the cell number change was -17.7%. Under setting [1], the AC50 is 0.184 µM [falling, full curve, poor fit].

On to `C/C(=N\NC(=O)Cn1nc(C)c([N+](=O)[O-])c1C)c1ccc(O)cc1`, for which the cell number change stood at 32.9%. In addition, under setting [2], the AC50 is 18.4 µM [rising, single point]. On to `CC1(C)CN(C(Cc2ccccc2)C(N)=O)C1=O` (stereo not drawn), for which the cell number change was -29.2%. For the molecule `O=C(Cn1nnc2ccccc2c1=O)N[C@@H](Cc1c[nH]c2ccccc12)C(=O)O`, the cell number change was -21%. Further, the AC50 under setting [1] is 0.82 µM [falling, full curve, poor fit]. In the case of `COc1ccc(N2CCN(C(=O)c3sc4ncn(CC(=O)N5CCCCC5)c(=O)c4c3C)CC2)cc1`, the AC50 under setting [2] is 0.103 µM [rising, full curve, poor fit] and the AC50 under setting [1] is 0.58 µM [falling, single point]. For the molecule `Cc1nn(CCOc2cccc(Cl)c2)c(C)c1[N+](=O)[O-]`, the cell number change was 60.1%. The AC50 under setting [2] is 25.9 µM [rising, single point]. Moreover, the AC50 under setting [1] is 0.411 µM [rising, full curve]. Regarding `O=C(CNC(=O)c1ccccc1)N/N=C/c1ccc([N+](=O)[O-])o1`, the cell number change is -14.2%. Moreover, the AC50 under setting [2] is 6.51 µM [falling, single point]. For the same molecule, the AC50 under setting [1] is 4.61 µM [falling, full curve]. In the case of `N#Cc1c(-c2ccc(Cl)cc2)ccnc1N1CCOCC1`, the cell number change was -63.1%. Also, under setting [2], the AC50 is 11.6 µM [falling, partial curve]. Further, under setting [1], the AC50 was 0.092 µM [falling, full curve, poor fit]. Regarding `CC(=O)Nc1cccc(C(=O)OCC(=O)NCc2ccc(F)cc2)c1`, the cell number change is -13.7%. For the molecule `Cc1ccc(OCC(=O)Nc2ccc(C(N)=O)cc2)cc1`, the cell number change came to 2.7%. The AC50 under setting [1] is 3.66 µM [falling, single point]. With `NC(=O)N1CC(O)CC1C(=O)Nc1ccc(Cl)c(Cl)c1` (stereo not drawn), the cell number change is -9%. Also, the AC50 under setting [1] is 20.6 µM [rising, single point]. On to `Cc1ccc(NCc2nc3ccccc3n2CCOc2ccccc2)cc1`, for which the cell number change was determined as 5.91%. Further, under setting [1], the half-maximal activity concentration (AC50) was 4.11 µM [rising, partial curve, poor fit]. Take `Cc1ccc(Nc2cc(C(=O)NCCCN3CCOCC3)c3ccccc3n2)cc1C`: the cell number change was -2.69%. For the same molecule, the half-maximal activity concentration (AC50) under setting [1] was 6.51 µM [rising, single point]. As to `O=C(COc1ccccc1-c1ccccc1)Nc1ccc(S(=O)(=O)NCc2ccco2)cc1`, the AC50 under setting [1] is 0.58 µM [falling, single point]. For the molecule `Cc1ccc(C)c(S(=O)(=O)N=Nc2c(O)[nH]c3ccccc23)c1`, the cell number change is -5.6%. Further, under setting [1], the AC50 was 3.26 µM [falling, full curve, poor fit]. Consider `COc1ccc(CCN2C(=O)CSC2c2ccc(F)cc2)cc1` (stereo not drawn), for which the cell number change was 18%. As for `O=C(CSc1cn(CC(=O)N2CCCCC2)c2ccccc12)NCC1CCCO1` (stereo not drawn), the cell number change amounted to 13.2%. On to `COc1ccc(N(CC(=O)NC(C)C)C(=O)CCC(=O)Nc2ccccn2)cc1`, for which the cell number change was determined as 27.6%. Under setting [1], the AC50 was 29.1 µM [rising, single point]. In the case of `O=C(NN=C1CCCC1)c1[nH]c2ccc(Cl)cc2c1-c1ccccc1`, the cell number change is -37.4%. Moreover, the half-maximal activity concentration (AC50) under setting [2] is 32.6 µM [falling, single point]. The AC50 under setting [1] was 32.6 µM [falling, single point].

On to `C[C@@H](O)C(C(=O)N1CCNCC1)n1cc([C@@H](N)CCCCN)nn1` (stereo partly drawn), for which the cell number change worked out at 7.52%. The AC50 under setting [1] is 29.1 µM [rising, single point]. Turning to `COc1ccccc1CC(=O)N1CCN(C(=O)c2ccco2)CC1`, the cell number change was -24.9%. Besides, the AC50 under setting [2] is 0.0651 µM [falling, full curve, poor fit]. Consider `Cc1cc(C)nc(NC(=O)NS(=O)(=O)N2CCCCCC2)n1`, for which the cell number change is -26.9%. The AC50 under setting [2] is 4.11 µM [falling, full curve, poor fit]. In addition, the AC50 under setting [1] was 3.26 µM [falling, full curve].

Take `O=C(N/N=C/c1ccc(Cl)cc1)c1nc2ccc([N+](=O)[O-])cc2c(=O)[nH]1`: the cell number change is -34.5%. Under setting [2], the AC50 was 32.6 µM [falling, single point]. Under setting [1], the AC50 is 16.4 µM [falling, partial curve, poor fit].

`CCOc1ccc2ccccc2c1CNCCc1ccc(S(N)(=O)=O)cc1`: the AC50 under setting [1] was 29.1 µM [rising, single point]. For `O=C(/C=C/c1ccc(-c2ccccc2[N+](=O)[O-])o1)c1ccco1`, the cell number change is -25.7%. In addition, under setting [1], the AC50 is 2.06 µM [rising, partial curve]. As to `CC(C)C(=O)Nc1nc(-c2ccc(S(=O)(=O)N3CCOCC3)cc2)cs1`, the AC50 under setting [1] was 7.31 µM [falling, partial curve, poor fit]. Consider `Oc1ccc(-c2[nH]nc(-c3ccccc3)c2-c2nc3ccccc3[nH]2)cc1`, for which the cell number change was found to be 1.64%. The AC50 under setting [1] is 25.9 µM [rising, single point]. For `Nc1cccc([N+](=O)[O-])c1`, the cell number change was -6.51%. For the molecule `O=C(NS(=O)(=O)Oc1ccccc1F)OC[C@@H]1CCCN2CCCCC12` (stereo partly drawn), the cell number change is -4.76%. Also, the AC50 under setting [1] is 6.51 µM [rising, partial curve]. With `COc1ccc(Nc2nc3[nH]c(=O)cc(O)c3s2)cc1`, the cell number change is -35.7%. In addition, the AC50 under setting [2] is 29.1 µM [falling, single point]. For the same molecule, the AC50 under setting [1] is 29.1 µM [falling, single point].

Turning to `COc1ccc(NC(=O)CCCN2C(=O)C3CC=CCC3C2=O)cc1` (stereo not drawn), the cell number change is -9.94%. As to `CCCCNC(=S)Nc1ccc(-c2nc3ccc(C)cc3s2)cc1`, the cell number change was -10.8%. As for `CC1=Nc2ccccc2N=C(NC(=O)CSC(=S)N2CCN(C)CC2)C1c1ccccc1` (stereo not drawn), the cell number change stood at 16.9%. Besides, the AC50 under setting [1] is 0.731 µM [rising, full curve, poor fit]. In the case of `Cc1cccc(C)c1NC(=O)N1CC(C)OC(C)C1` (stereo not drawn), the cell number change came to 43.1%. Also, the AC50 under setting [2] was 5.8 µM [rising, partial curve, poor fit].

For the molecule `CCN(CC)c1ccc(/C=N/NC(=O)c2cccc(S(=O)(=O)Nc3ccccc3OC)c2)cc1`, the cell number change turned out to be 80.3%. For the same molecule, the AC50 under setting [2] was 18.4 µM [rising, single point]. For the molecule `Nc1c(N(Cc2ccccc2)C(=O)COc2cccc(Cl)c2)c(=O)[nH]c(=O)n1Cc1ccccc1`, the cell number change amounted to 125%. Moreover, under setting [2], the AC50 is 29.1 µM [rising, single point].
